# Some of the results follow. Only hits are listed; about a third recur on repeated control peptides.
# Protein sequences, listed by entry. Tags and fused reporters are not part of them.
# KPNA1, P52294, UniProt P52294, whole entry: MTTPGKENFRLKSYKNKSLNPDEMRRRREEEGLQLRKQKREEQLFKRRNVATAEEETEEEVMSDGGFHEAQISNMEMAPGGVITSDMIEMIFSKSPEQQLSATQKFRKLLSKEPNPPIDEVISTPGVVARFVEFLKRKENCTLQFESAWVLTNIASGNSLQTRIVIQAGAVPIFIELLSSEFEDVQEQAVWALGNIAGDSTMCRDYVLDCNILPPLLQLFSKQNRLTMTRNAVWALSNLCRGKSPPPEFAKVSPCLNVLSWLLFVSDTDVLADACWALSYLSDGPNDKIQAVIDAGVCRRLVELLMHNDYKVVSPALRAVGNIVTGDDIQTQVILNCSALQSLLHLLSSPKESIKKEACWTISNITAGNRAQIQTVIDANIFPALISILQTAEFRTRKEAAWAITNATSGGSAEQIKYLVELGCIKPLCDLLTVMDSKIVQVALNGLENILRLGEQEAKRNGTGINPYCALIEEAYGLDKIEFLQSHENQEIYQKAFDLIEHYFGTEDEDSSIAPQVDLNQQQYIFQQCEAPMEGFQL
# SDC2, P34741, UniProt P34741, whole entry: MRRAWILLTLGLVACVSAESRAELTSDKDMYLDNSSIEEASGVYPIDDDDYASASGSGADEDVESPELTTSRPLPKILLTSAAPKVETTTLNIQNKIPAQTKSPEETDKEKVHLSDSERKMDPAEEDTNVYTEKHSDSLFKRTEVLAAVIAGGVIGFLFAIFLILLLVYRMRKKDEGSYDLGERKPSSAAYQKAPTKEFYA
# SET, Q01105, UniProt Q01105, whole entry: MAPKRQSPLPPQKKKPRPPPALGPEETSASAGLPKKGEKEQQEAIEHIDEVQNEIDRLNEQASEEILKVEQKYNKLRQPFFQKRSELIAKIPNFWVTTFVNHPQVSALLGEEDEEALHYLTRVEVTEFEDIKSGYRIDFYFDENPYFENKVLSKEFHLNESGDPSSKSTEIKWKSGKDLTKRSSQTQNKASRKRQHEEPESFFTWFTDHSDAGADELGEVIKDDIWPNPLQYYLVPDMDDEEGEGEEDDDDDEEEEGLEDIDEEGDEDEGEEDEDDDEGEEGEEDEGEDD
# Tests used:
# Assay in all cases: PRISMA enrichment of interactor (LFQ) in peptide spot vs all other peptide spots (log2 fold change); higher = stronger / more specific binding of the interactor to the peptide
# ANKHD1, Q8IWZ3 = molecular target: ANKHD1, Q8IWZ3
# Protocol: (§1)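 PRISMA: 221 full-length sORF-encoded peptides (3-15 aa), plus SOS1/GLUT1 control peptides, were spot-synthesized on cellulose membranes in triplicate. Membranes were incubated with HEK293T lysate, and bound proteins were identified by LC-MS/MS with LFQ. Enrichment is the log2 fold change versus all other peptide spots; only significant interactors are listed (cutoff c=6, x0=2.8).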
# ANP32A, P39687 = molecular target: ANP32A, P39687
# Protocol: as §1
# ANP32B, Q92688 = molecular target: ANP32B, Q92688
# Protocol: as §1
# ANP32E, Q9BTT0 = molecular target: ANP32E, Q9BTT0
# Protocol: as §1
# C7orf50, Q9BRJ6 = molecular target: C7orf50, Q9BRJ6
# Protocol: as §1
# CDC73, Q6P1J9 = molecular target: CDC73, Q6P1J9
# Protocol: as §1
# CDCA7L, Q96GN5 = molecular target: CDCA7L, Q96GN5
# Protocol: as §1
# CDK11B, P21127 = molecular target: CDK11B, P21127
# Protocol: as §1
# CENPB, P07199 = molecular target: CENPB, P07199
# Protocol: as §1
# CHD1, O14646 = molecular target: CHD1, O14646
# Protocol: as §1
# CTR9, Q6PD62 = molecular target: CTR9, Q6PD62
# Protocol: as §1
# DDX21, Q9NR30 = molecular target: DDX21, Q9NR30
# Protocol: as §1
# EBNA1BP2, Q99848 = molecular target: EBNA1BP2, Q99848
# Protocol: as §1
# EIF6, P56537 = molecular target: EIF6, P56537
# Protocol: as §1
# ESF1, Q9H501 = molecular target: ESF1, Q9H501
# Protocol: as §1
# FLYWCH2, Q96CP2 = molecular target: FLYWCH2, Q96CP2
# Protocol: as §1
# GPC4, O75487 = molecular target: GPC4, O75487
# Protocol: as §1
# GTPBP4, Q9BZE4 = molecular target: GTPBP4, Q9BZE4
# Protocol: as §1
# HTATSF1, O43719 = molecular target: HTATSF1, O43719
# Protocol: as §1
# IWS1, Q96ST2 = molecular target: IWS1, Q96ST2
# Protocol: as §1
# KPNA1, P52294 = molecular target: KPNA1, P52294
# Protocol: as §1
# KRI1, Q8N9T8 = molecular target: KRI1, Q8N9T8
# Protocol: as §1
# LARP1, Q6PKG0 = molecular target: LARP1, Q6PKG0
# Protocol: as §1
# LETMD1, Q6P1Q0 = molecular target: LETMD1, Q6P1Q0
# Protocol: as §1
# MAGEB2, O15479 = molecular target: MAGEB2, O15479
# Protocol: as §1
# MOV10, Q9HCE1 = molecular target: MOV10, Q9HCE1
# Protocol: as §1
# NAT10, Q9H0A0 = molecular target: NAT10, Q9H0A0
# Protocol: as §1
# NOC2L, Q9Y3T9 = molecular target: NOC2L, Q9Y3T9
# Protocol: as §1
# NOLC1, Q14978 = molecular target: NOLC1, Q14978
# Protocol: as §1
# NOP2, P46087 = molecular target: NOP2, P46087
# Protocol: as §1
# NTMT1, Q9BV86 = molecular target: NTMT1, Q9BV86
# Protocol: as §1
# PAF1, Q8N7H5 = molecular target: PAF1, Q8N7H5
# Protocol: as §1
# PELP1, Q8IZL8 = molecular target: PELP1, Q8IZL8
# Protocol: as §1
# PPM1G, O15355 = molecular target: PPM1G, O15355
# Protocol: as §1
# RBM28, Q9NW13 = molecular target: RBM28, Q9NW13
# Protocol: as §1
# RBM34, P42696 = molecular target: RBM34, P42696
# Protocol: as §1
# RSL1D1, O76021 = molecular target: RSL1D1, O76021
# Protocol: as §1
# SDC2, P34741 = molecular target: SDC2, P34741
# Protocol: as §1
# SET, Q01105 = molecular target: SET, Q01105
# Protocol: as §1
# SH3GL1, Q99961 = molecular target: SH3GL1, Q99961
# Protocol: as §1
# SMAP, O00193 = molecular target: SMAP, O00193
# Protocol: as §1
# SRP19, P09132 = molecular target: SRP19, P09132
# Protocol: as §1
# SRSF7, Q16629 = molecular target: SRSF7, Q16629
# Protocol: as §1
# STAU1, O95793 = molecular target: STAU1, O95793
# Protocol: as §1
# UBTF, P17480 = molecular target: UBTF, P17480
# Protocol: as §1
# ZC3H18, Q86VM9 = molecular target: ZC3H18, Q86VM9
# Protocol: as §1
# ZRANB2, O95218 = molecular target: ZRANB2, O95218
# Protocol: as §1
binder,measurement,setting,value
MKKTRHREVLNLAQV [CLDN12],PRISMA enrichment of interactor (log2),"ANKHD1, Q8IWZ3",4.37
same,PRISMA enrichment of interactor (log2),"ANP32A, P39687",7.72
same,PRISMA enrichment of interactor (log2),"ANP32B, Q92688",7.76
same,PRISMA enrichment of interactor (log2),"ANP32E, Q9BTT0",7.37
same,PRISMA enrichment of interactor (log2),"C7orf50, Q9BRJ6",4.3
same,PRISMA enrichment of interactor (log2),"CDC73, Q6P1J9",6.11
same,PRISMA enrichment of interactor (log2),"CDCA7L, Q96GN5",3.91
same,PRISMA enrichment of interactor (log2),"CDK11B, P21127",6.36
same,PRISMA enrichment of interactor (log2),"CENPB, P07199",4.85
same,PRISMA enrichment of interactor (log2),"CHD1, O14646",5.15
same,PRISMA enrichment of interactor (log2),"CTR9, Q6PD62",6.71
same,PRISMA enrichment of interactor (log2),"DDX21, Q9NR30",5.96
same,PRISMA enrichment of interactor (log2),"EBNA1BP2, Q99848",5.69
same,PRISMA enrichment of interactor (log2),"EIF6, P56537",5.94
same,PRISMA enrichment of interactor (log2),"ESF1, Q9H501",5.19
same,PRISMA enrichment of interactor (log2),"FLYWCH2, Q96CP2",4.06
same,PRISMA enrichment of interactor (log2),"GPC4, O75487",5.25
same,PRISMA enrichment of interactor (log2),"GTPBP4, Q9BZE4",6.03
same,PRISMA enrichment of interactor (log2),"HTATSF1, O43719",7.56
same,PRISMA enrichment of interactor (log2),"IWS1, Q96ST2",4.51
same,PRISMA enrichment of interactor (log2),"KPNA1, P52294",5.42
same,PRISMA enrichment of interactor (log2),"KRI1, Q8N9T8",4.49
same,PRISMA enrichment of interactor (log2),"LARP1, Q6PKG0",6.05
same,PRISMA enrichment of interactor (log2),"LETMD1, Q6P1Q0",6.3
same,PRISMA enrichment of interactor (log2),"MAGEB2, O15479",5.68
same,PRISMA enrichment of interactor (log2),"MOV10, Q9HCE1",5.74
same,PRISMA enrichment of interactor (log2),"NAT10, Q9H0A0",6.02
same,PRISMA enrichment of interactor (log2),"NOC2L, Q9Y3T9",4.88
same,PRISMA enrichment of interactor (log2),"NOLC1, Q14978",4.88
same,PRISMA enrichment of interactor (log2),"NOP2, P46087",5.38
same,PRISMA enrichment of interactor (log2),"NTMT1, Q9BV86",5.07
same,PRISMA enrichment of interactor (log2),"PAF1, Q8N7H5",7.35
same,PRISMA enrichment of interactor (log2),"PELP1, Q8IZL8",5.21
same,PRISMA enrichment of interactor (log2),"PPM1G, O15355",5.81
same,PRISMA enrichment of interactor (log2),"RBM28, Q9NW13",5.13
same,PRISMA enrichment of interactor (log2),"RBM34, P42696",4.87
same,PRISMA enrichment of interactor (log2),"RSL1D1, O76021",5.12
same,PRISMA enrichment of interactor (log2),"SDC2, P34741",4.98
same,PRISMA enrichment of interactor (log2),"SET, Q01105",6.67
same,PRISMA enrichment of interactor (log2),"SH3GL1, Q99961",4.99
same,PRISMA enrichment of interactor (log2),"SMAP, O00193",5.14
same,PRISMA enrichment of interactor (log2),"SRP19, P09132",4.59
same,PRISMA enrichment of interactor (log2),"SRSF7, Q16629",5.21
same,PRISMA enrichment of interactor (log2),"STAU1, O95793",5.26
same,PRISMA enrichment of interactor (log2),"UBTF, P17480",7.47
same,PRISMA enrichment of interactor (log2),"ZC3H18, Q86VM9",4.83
same,PRISMA enrichment of interactor (log2),"ZRANB2, O95218",6.85

# Random excerpt: 2 records from the list, in no set order.
binder,measurement,setting,value
MKKTRHREVLNLAQV [CLDN12],PRISMA enrichment of interactor (log2),"ZC3H18, Q86VM9",4.83
same,PRISMA enrichment of interactor (log2),"FLYWCH2, Q96CP2",4.06

# Reference: the supplement of paper PMC10032668
